Assay results: PubChem BioAssay AID220 (DTP/NCI, 2004)
The list is a part of this screen's results and no random one: it is rich in T/C values a quarter to a half above the control, in often repeated tests (any T/C) and in doses without a T/C. Further doses and runs are listed elsewhere. T/C is the treated group as % of the vehicle group. Schedules are NCI's codes, taken here to give the interval after Q, in days (D) or hours (H), and the number of doses after X. Some T/C values are followed by the survivors on the day toxicity was checked, most often the fifth; without a count, all were alive then. Some doses have a count of surviving animals in place of a T/C: the source holds a T/C of zero for them, seemingly a mark for toxic or unscored doses. Counts of survivors are from the toxicity check (mostly the fifth day) where no day follows; animals may have died later. Some doses were run more than once; the results are listed from low to high.

Tested on: CD8F1 mice, subcutaneous mammary adenocarcinoma, T/C%
Test: NCI In Vivo Anticancer Drug Screen. Data for tumor model Mammary Adenocarcinoma CD8F1 (subcutaneous) in CD8F1
Settings: higher T/C = larger tumour
Method in brief: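 Compound-treated versus vehicle-treated mice with transplantable tumors; survival or tumor size compared as T/C.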

[1] = T/C endpoint: median tumor weight (est.), dose: 20.0 mg/kg/injection, schedule: Q07DX005 (ip), vehicle: Klucel (hydroxypropylcellulose) (HPC), evaluated on day 30
[2] = T/C endpoint: median tumor weight change, dose: 1000.0 mg/kg/injection, schedule: Q01DX001 (ip), vehicle: saline with Tween-80

Question: What does the source list for CCC[CH2][Sn]1([CH2]CCC)[O]C2C(CO)OC(n3ccc(N)nc3=O)C2[O]1 (stereo unspecified)?
Answer: T/C (T/C endpoint: median tumor weight (est.), dose: 0.78 mg/kg/injection, schedule: Q07DX005 (ip), vehicle: Klucel (hydroxypropylcellulose) (HPC), evaluated on day 30): 131 % of control [9 of 10 alive]; T/C (T/C endpoint: median tumor weight (est.), dose: 3.12 mg/kg/injection, schedule: Q07DX005 (ip), vehicle: Klucel (hydroxypropylcellulose) (HPC), evaluated on day 33): 135 % of control; survivor count (T/C endpoint: median tumor weight (est.), dose: 12.5 mg/kg/injection, schedule: Q07DX005 (ip), vehicle: Klucel (hydroxypropylcellulose) (HPC)): 5 of 10 on day 30; survivor count (T/C endpoint: median tumor weight (est.), dose: 25.0 mg/kg/injection, schedule: Q07DX005 (ip), vehicle: Klucel (hydroxypropylcellulose) (HPC)): 0 of 10 on day 30

Question: Which survivor count (T/C endpoint: median tumor weight change, dose: 500.0 mg/kg/injection, schedule: Q01DX001 (ip), vehicle: suspension in saline) does the source give for C[C@@H]1C[C@@H]([C@H](O)CC2CC(=O)NC(=O)C2)C(=O)[C@@H](C)C1 here?
Answer: 3 of 10 on day 28

Question: And the survivor count (T/C endpoint: median tumor weight change, dose: 1000.0 mg/kg/injection, schedule: Q01DX001 (ip), vehicle: suspension in saline)?
Answer: 0 of 10 on day 28

Question: How did the survivor count (T/C endpoint: median tumor weight change, dose: 30.0 mg/kg/injection, schedule: Q01DX001 (ip), vehicle: saline) turn out when CCCNC1=C(C)C(=O)C2=C(C1=O)[C@H](COC(N)=O)[C@]1(OC)[C@@H]3N[C@@H]3CN21 was run?
Answer: 0 of 10 on day 33

Question: And the survivor count (T/C endpoint: median tumor weight change, dose: 60.0 mg/kg/injection, schedule: Q01DX001 (ip), vehicle: saline)?
Answer: 0 of 10 on day 33

Question: How did the T/C (T/C endpoint: median tumor weight (est.), dose: 12.5 mg/kg/injection, schedule: Q07DX005 (ip), vehicle: other, evaluated on day 30) turn out when O=c1c(O)c(-c2ccc(O)c(O)c2)oc2cc(O)cc(O)c12 was run?
Answer: 140 % of control

Question: What about the T/C (T/C endpoint: median tumor weight (est.), dose: 200.0 mg/kg/injection, schedule: Q07DX005 (ip), vehicle: other, evaluated on day 30) of the same compound?
Answer: 133 % of control [9 of 10 alive]

Question: With C[C@]12CC[C@H]3[C@@H](CCC4=C[C@@H](OC5OCC(OC6OC(CO)C(O)C(O)C6O)C(O)C5O)CC[C@@]43C=O)[C@@]1(O)CCC2C1=CC(=O)OC1 (stereo partly specified) as the compound, how does the T/C [1] read?
Answer: 129 % of control

Question: Which results are given for C/C(=N\N=C(/[Se])N1CC2CCC(CC2)C1)c1ccccn1?
Answer: T/C (T/C endpoint: median tumor weight change, dose: 31.25 mg/kg/injection, schedule: Q01DX001 (ip), vehicle: Klucel (hydroxypropylcellulose) (HPC), evaluated on day 29): 130 % of control; survivor count (T/C endpoint: median tumor weight change, dose: 125.0 mg/kg/injection, schedule: Q01DX001 (ip), vehicle: Klucel (hydroxypropylcellulose) (HPC)): 2 of 10 on day 32

Question: What does the source list for CONc1ccn(C2OC(CO)C(O)C2O)c(=O)n1 (stereo unspecified)?
Answer: survivor count (T/C endpoint: median tumor weight change, dose: 500.0 mg/kg/injection, schedule: Q01DX001 (ip), vehicle: saline): 5 of 10 on day 35; survivor count (T/C endpoint: median tumor weight change, dose: 1000.0 mg/kg/injection, schedule: Q01DX001 (ip), vehicle: saline): 0 of 10 on day 35; survivor count (T/C endpoint: median tumor weight change, dose: 2000.0 mg/kg/injection, schedule: Q01DX001 (ip), vehicle: saline): 0 of 10 on day 35; survivor count (T/C endpoint: median tumor weight change, dose: 4000.0 mg/kg/injection, schedule: Q01DX001 (ip), vehicle: saline): 0 of 10 on day 35

Question: With CN1C(=O)NC(c2ccc(Cl)cc2)(c2ccc(Cl)cc2)C1=O as the compound, how does the T/C (T/C endpoint: median tumor weight (est.), dose: 50.0 mg/kg/injection, schedule: Q07DX005 (ip), vehicle: distilled water + Tween-80, evaluated on day 30) read?
Answer: 136 % of control

Question: And the T/C (T/C endpoint: median tumor weight (est.), dose: 200.0 mg/kg/injection, schedule: Q07DX005 (ip), vehicle: distilled water + Tween-80, evaluated on day 30)?
Answer: 145 % of control

Question: What about the survivor count (T/C endpoint: median tumor weight (est.), dose: 400.0 mg/kg/injection, schedule: Q07DX005 (ip), vehicle: distilled water + Tween-80) of the same compound?
Answer: 6 of 10 on day 30

Question: What about the survivor count (T/C endpoint: median tumor weight (est.), dose: 800.0 mg/kg/injection, schedule: Q07DX005 (ip), vehicle: distilled water + Tween-80) of the same compound?
Answer: 2 of 10 on day 30

Question: And the survivor count (T/C endpoint: median tumor weight change, dose: 2000.0 mg/kg/injection, schedule: Q01DX001 (ip), vehicle: distilled water + Tween-80)?
Answer: 0 of 10 on day 30

Question: [I][Hg][CH2]C1COC([CH2][Hg][I])CO1 (stereo unspecified) was tested. Which survivor count (T/C endpoint: median tumor weight (est.), dose: 100.0 mg/kg/injection, schedule: Q07DX005 (ip), vehicle: suspension in saline) did it give?
Answer: 4 of 10 on day 30

Question: And the survivor count (T/C endpoint: median tumor weight (est.), dose: 200.0 mg/kg/injection, schedule: Q07DX005 (ip), vehicle: suspension in saline)?
Answer: 2 of 10 on day 30

Question: Which results are given for O=Cc1c(O)c2ccccc2[nH]c1=O?
Answer: survivor count (T/C endpoint: median tumor weight change, dose: 500.0 mg/kg/injection, schedule: Q01DX001 (ip), vehicle: saline with Tween-80): 6 of 10 on day 36; survivor count [2]: 0 of 10 on day 30 and 1 of 10 on day 36

Question: Which results are given for CN(C)N=Nc1cccc(C(N)=O)c1?
Answer: T/C [1]: 130 % of control [9 of 10 alive on day 30]; survivor count (T/C endpoint: median tumor weight (est.), dose: 160.0 mg/kg/injection, schedule: Q07DX005 (ip), vehicle: Klucel (hydroxypropylcellulose) (HPC)): 1 of 10 on day 30; survivor count (T/C endpoint: median tumor weight (est.), dose: 320.0 mg/kg/injection, schedule: Q07DX005 (ip), vehicle: Klucel (hydroxypropylcellulose) (HPC)): 0 of 10 on day 30

Question: How did the survivor count (T/C endpoint: median tumor weight (est.), dose: 800.0 mg/kg/injection, schedule: Q07DX005 (ip), vehicle: Klucel (hydroxypropylcellulose) (HPC)) turn out when CC(C)(Oc1ccc(-c2cccc3ccccc23)cc1)C(=O)O was run?
Answer: 3 of 10 on day 30

Question: How did the T/C (T/C endpoint: median tumor weight change, dose: 125.0 mg/kg/injection, schedule: Q01DX001 (ip), vehicle: saline with Tween-80, evaluated on day 36) turn out when CCN(CC)CCNc1ccc(C)c2sc3ccc(O)cc3c(=O)c12 was run?
Answer: 129 % of control

Question: And the survivor count [2]?
Answer: 6 of 10 on day 36

Question: For CCOc1cc2c(cc1C(C)c1ccc(OC)cc1)OCO2 (stereo unspecified), which survivor count (T/C endpoint: median tumor weight change, dose: 1000.0 mg/kg/injection, schedule: Q01DX001 (ip), vehicle: distilled water + alcohol) is on record?
Answer: 5 of 10 on day 28

Question: With Nc1ccn([C@@H](C=O)O[C@@H](C=O)CO)c(=O)n1 as the compound, how does the T/C (T/C endpoint: median tumor weight (est.), dose: 12.5 mg/kg/injection, schedule: Q07DX005 (ip), vehicle: suspension in saline, evaluated on day 30) read?
Answer: 141 % of control

Question: How did the T/C (T/C endpoint: median tumor weight (est.), dose: 12.5 mg/kg/injection, schedule: Q07DX005 (ip), vehicle: Klucel (hydroxypropylcellulose) (HPC), evaluated on day 30) turn out when C1CCC2OCCOCCOC3CCCCC3OCCOCCOC2C1 (stereo unspecified) was run?
Answer: 127 % of control

Question: Which T/C (T/C endpoint: median tumor weight change, dose: 800.0 mg/kg/injection, schedule: Q01DX001 (ip), vehicle: saline, evaluated on day 30) does the source give for NC(Cn1ccc(=O)c(O)c1)C(=O)O (stereo unspecified) here?
Answer: 125 % of control [9 of 10 alive on day 30]

Question: O=C(Nc1ccc(Cl)c(Cl)c1)Nc1c(Oc2ccc(Cl)c(Cl)c2)ccc(Cl)c1S(=O)(=O)O was tested. Which T/C (T/C endpoint: median tumor weight (est.), dose: 50.0 mg/kg/injection, schedule: Q07DX005 (ip), vehicle: saline, evaluated on day 30) did it give?
Answer: 126 % of control

Question: What does the source list for COC1C(O)C(C)OC(OC2C(Oc3cccc4c(O)c5c(=O)oc6ccc(C)c7c(=O)oc(c34)c5c67)OC(C)C(O)C2O)C1O (stereo unspecified)?
Answer: survivor count (T/C endpoint: median tumor weight (est.), dose: 100.0 mg/kg/injection, schedule: Q07DX005 (ip), vehicle: Klucel (hydroxypropylcellulose) (HPC)): 5 of 10 on day 30; survivor count (T/C endpoint: median tumor weight (est.), dose: 200.0 mg/kg/injection, schedule: Q07DX005 (ip), vehicle: Klucel (hydroxypropylcellulose) (HPC)): 0 of 10 on day 30; survivor count (T/C endpoint: median tumor weight (est.), dose: 400.0 mg/kg/injection, schedule: Q07DX005 (ip), vehicle: Klucel (hydroxypropylcellulose) (HPC)): 0 of 10 on day 30

Question: CC(C)(C)N1CC1CNC(=O)C(=O)NCC1CN1C(C)(C)C (stereo unspecified) was tested. Which T/C (T/C endpoint: median tumor weight change, dose: 7.81 mg/kg/injection, schedule: Q01DX001 (ip), vehicle: saline with Tween-80, evaluated on day 34) did it give?
Answer: 140 % of control

Question: And the survivor count (T/C endpoint: median tumor weight change, dose: 62.5 mg/kg/injection, schedule: Q01DX001 (ip), vehicle: saline with Tween-80)?
Answer: 4 of 10 on day 26 and 5 of 10 on day 34

Question: And the survivor count (T/C endpoint: median tumor weight change, dose: 125.0 mg/kg/injection, schedule: Q01DX001 (ip), vehicle: saline with Tween-80)?
Answer: 0 of 10 on day 26 and 0 of 10 on day 34

Question: And the survivor count (T/C endpoint: median tumor weight change, dose: 250.0 mg/kg/injection, schedule: Q01DX001 (ip), vehicle: saline with Tween-80)?
Answer: 0 of 10 on day 26 and 0 of 10 on day 34

Question: Which results are given for COC1=C2C[C@@H](C)C[C@@H](OC)[C@@H](O)[C@H](C)/C=C(\C)[C@@H](OC(N)=O)[C@H](OC)/C=C\C=C(/C)C(=O)NC(=CC1=O)C2=O?
Answer: T/C (T/C endpoint: median tumor weight change, dose: 5.0 mg/kg/injection, schedule: Q01DX001 (ip), vehicle: saline with Tween-80, evaluated on day 29): 130 % of control; survivor count (T/C endpoint: median tumor weight change, dose: 20.0 mg/kg/injection, schedule: Q01DX001 (ip), vehicle: saline with Tween-80): 1 of 10 on day 29 and 2 of 10 on day 25
